In paper PMC5910412 one finds binding data, which are given here for two substances.

Protein sequences, listed by entry. Tags and fused reporters are not part of them. Lines headed by an entry give the natural chain unless they say otherwise; changes in a name come on top.
UniProt P60953: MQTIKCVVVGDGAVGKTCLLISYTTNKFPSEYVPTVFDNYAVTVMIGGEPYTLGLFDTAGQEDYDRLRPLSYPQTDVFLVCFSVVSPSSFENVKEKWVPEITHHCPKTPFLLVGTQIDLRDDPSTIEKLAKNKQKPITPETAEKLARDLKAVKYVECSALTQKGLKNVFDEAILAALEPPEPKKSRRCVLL
UniProt P46940: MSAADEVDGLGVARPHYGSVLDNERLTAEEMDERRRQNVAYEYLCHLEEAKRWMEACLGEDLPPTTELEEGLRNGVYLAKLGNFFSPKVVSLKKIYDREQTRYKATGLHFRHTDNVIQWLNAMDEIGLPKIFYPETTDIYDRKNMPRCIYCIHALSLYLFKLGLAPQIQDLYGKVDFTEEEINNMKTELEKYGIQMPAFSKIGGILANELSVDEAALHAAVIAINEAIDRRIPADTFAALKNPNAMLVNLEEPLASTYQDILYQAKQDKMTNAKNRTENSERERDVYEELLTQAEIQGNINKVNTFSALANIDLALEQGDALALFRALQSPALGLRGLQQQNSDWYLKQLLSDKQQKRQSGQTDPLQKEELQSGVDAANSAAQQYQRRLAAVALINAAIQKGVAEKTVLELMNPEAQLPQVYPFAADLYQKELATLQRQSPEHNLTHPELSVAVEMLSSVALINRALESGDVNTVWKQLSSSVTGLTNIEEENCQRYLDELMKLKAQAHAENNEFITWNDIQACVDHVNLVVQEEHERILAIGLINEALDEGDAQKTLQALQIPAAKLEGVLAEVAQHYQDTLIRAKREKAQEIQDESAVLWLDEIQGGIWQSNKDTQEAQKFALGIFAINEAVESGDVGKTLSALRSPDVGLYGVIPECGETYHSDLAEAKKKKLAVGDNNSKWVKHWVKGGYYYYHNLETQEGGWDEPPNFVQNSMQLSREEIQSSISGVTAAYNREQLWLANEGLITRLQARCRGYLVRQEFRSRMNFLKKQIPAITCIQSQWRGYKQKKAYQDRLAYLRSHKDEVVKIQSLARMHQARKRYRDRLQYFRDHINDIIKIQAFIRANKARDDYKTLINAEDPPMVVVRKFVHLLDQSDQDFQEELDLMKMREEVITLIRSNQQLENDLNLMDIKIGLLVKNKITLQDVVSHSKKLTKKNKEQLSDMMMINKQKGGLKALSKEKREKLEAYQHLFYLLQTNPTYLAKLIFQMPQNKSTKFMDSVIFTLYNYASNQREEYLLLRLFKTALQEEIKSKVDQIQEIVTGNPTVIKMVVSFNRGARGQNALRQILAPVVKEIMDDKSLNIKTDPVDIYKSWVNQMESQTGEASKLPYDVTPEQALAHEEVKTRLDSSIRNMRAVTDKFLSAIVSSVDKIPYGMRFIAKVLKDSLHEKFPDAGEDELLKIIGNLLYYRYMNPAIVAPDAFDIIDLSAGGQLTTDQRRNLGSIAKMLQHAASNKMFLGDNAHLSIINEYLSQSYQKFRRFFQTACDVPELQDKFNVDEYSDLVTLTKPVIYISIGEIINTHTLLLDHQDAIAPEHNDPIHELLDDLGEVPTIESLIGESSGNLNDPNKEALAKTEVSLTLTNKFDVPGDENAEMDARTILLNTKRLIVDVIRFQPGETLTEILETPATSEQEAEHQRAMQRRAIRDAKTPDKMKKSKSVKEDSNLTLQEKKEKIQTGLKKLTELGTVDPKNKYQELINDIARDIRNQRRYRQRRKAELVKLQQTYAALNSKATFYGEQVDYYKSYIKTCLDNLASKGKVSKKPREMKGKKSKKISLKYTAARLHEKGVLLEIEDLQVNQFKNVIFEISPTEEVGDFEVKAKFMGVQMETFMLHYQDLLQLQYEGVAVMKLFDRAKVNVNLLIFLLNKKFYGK

Test [1] has as its target T1, FLAG-MISP (UniProt Q8IVT2).
T1 sequence: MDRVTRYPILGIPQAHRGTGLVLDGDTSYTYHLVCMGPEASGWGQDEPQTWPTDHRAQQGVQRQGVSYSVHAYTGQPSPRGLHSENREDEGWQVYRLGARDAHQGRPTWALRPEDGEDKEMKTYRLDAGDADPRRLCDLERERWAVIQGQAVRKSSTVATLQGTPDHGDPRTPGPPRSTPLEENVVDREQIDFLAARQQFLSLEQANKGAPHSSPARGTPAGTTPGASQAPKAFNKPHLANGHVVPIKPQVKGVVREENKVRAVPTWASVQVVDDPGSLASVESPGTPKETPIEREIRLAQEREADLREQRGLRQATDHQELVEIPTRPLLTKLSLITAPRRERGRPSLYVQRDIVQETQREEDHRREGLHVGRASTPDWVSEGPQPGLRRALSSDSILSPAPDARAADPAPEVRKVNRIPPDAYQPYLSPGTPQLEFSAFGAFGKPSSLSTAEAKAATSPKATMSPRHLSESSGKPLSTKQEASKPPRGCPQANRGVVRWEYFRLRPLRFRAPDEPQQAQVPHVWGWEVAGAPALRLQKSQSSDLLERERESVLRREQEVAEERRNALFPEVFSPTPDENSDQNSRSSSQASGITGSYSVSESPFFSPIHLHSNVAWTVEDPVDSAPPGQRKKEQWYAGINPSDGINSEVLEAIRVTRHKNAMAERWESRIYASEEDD
The test is described as follows: co-IP; overexpressed GFP-IQGAP1 and FLAG-MISP in asynchronous HEK293T cell lysates; from both sides (GFP trap or FLAG M2 beads).

Test [2] has as its target GFP-Cdc42CA, constitutively active form of Cdc42 (Q61L) (UniProt P60953). The test is described as follows: co-IP; sequential IP from HEK293T lysates: FLAG M2 beads, elution with 3xFLAG peptide, then GFP trap beads 2 h at 4 °C; IQGAP1 detected by Western blot.
Test [3] addresses T1, FLAG-MISP. The description is as above.
In a further test the target is T2, GFP-MISP (UniProt Q8IVT2).
T2 sequence: T1 sequence
Briefly: co-IP; GFP-MISP and endogenous IQGAP1 in lysates of taxol-arrested (mitotic) HeLa cells.

Results are given in words; binding and its absence hold for the method and conditions named. Binding seen in cells or lysates may run through a third protein. Some entries that bind do so weakly or less than the wild type. For some of these results: Where a sequence is shown, tags or fusion partners need not be part of it.

As to GFP-IQGAP1 (from UniProt P46940 1-1657), the binding entry with FLAG-MISP [1] is listed as “binds”.
Regarding “endogenous IQGAP1 (from UniProt P46940 1-1657)”, the binding entry (in test [2]; with FLAG-MISP [3]; with GFP-MISP) was “binds” in each case.
